PubChem BioAssay AID1259405 | NCATS | 2018

- Screen: 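Mouse-designed siRNAs used to find CHO productivity engineering targets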 (primary screen)
- Cell system: Chinese hamster CHO-K1 ovary cells with stable secreted eGFP expression
- Knock-down reagent: single siRNA against mouse genes, 0.8 pmol siRNA per well (2 µl of 400 nM stock)
- Time to read-out: 3 days
- Measured: 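Percent of the per-plate non-targeting control median for intracellular GFP per well by laser scanning cytometry and for cell viability by ATP luminescence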
- Scale: GFP, % of control: higher = more GFP per well, higher productivity; viability (ATP), % of control: higher = more viable cells (more ATP)
- Hit rule: 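Called active when intracellular GFP, relative to negative control, is at or above 120%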
The whole screen tested about 50,000 reagents; this is a part drawn at random. In the full data, about 4,000 (8%) are marked active. 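Mouse siRNA library applied to hamster cells; one well for each siRNA.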 Reagents against one gene are numbered here. Reagent sequences are not shown.

no.	target	siRNA no.	GFP, % of control	viability (ATP), % of control	outcome
1	Abcg4 (ATP binding cassette subfamily G member 4)	1	117	99.6	inactive
2	Abcg4 (ATP binding cassette subfamily G member 4)	2	50.5	69.6	inactive
3	Abcg4 (ATP binding cassette subfamily G member 4)	3	64.8	67.7	inactive
4	Hoxb1 (homeobox B1)	1	53.4	71.1	inactive
5	Hoxb1 (homeobox B1)	2	59.8	80.1	inactive
6	Hoxb1 (homeobox B1)	3	70.2	78.6	inactive
7	Cemip (cell migration inducing protein, hyaluronan binding)	1	95	77.4	inactive
8	Cemip (cell migration inducing protein, hyaluronan binding)	2	44.3	60.7	inactive
9	Cemip (cell migration inducing protein, hyaluronan binding)	3	37.9	41.7	inactive
10	Thap2 (THAP domain containing, apoptosis associated protein 2)	1	66.1	66.4	inactive
11	Thap2 (THAP domain containing, apoptosis associated protein 2)	2	74.3	84.8	inactive
12	Thap2 (THAP domain containing, apoptosis associated protein 2)	3	88	91.6	inactive
13	Tigar (Trp53 induced glycolysis regulatory phosphatase)	1	26.9	22.8	inactive
14	Tigar (Trp53 induced glycolysis regulatory phosphatase)	2	32.8	69.3	inactive
15	Tigar (Trp53 induced glycolysis regulatory phosphatase)	3	70.3	98.9	inactive
16	Sema4g	1	133	109	active
17	Sema4g	2	74.7	86.9	inactive
18	Sema4g	3	76.7	89.3	inactive
19	Sphk1 (sphingosine kinase 1)	1	103	80.8	inactive
20	Sphk1 (sphingosine kinase 1)	2	67.3	71.5	inactive
21	Sphk1 (sphingosine kinase 1)	3	85.6	87.4	inactive
22	Or1e30 (olfactory receptor family 1 subfamily E member 30)	1	65.6	53.1	inactive
23	Or1e30 (olfactory receptor family 1 subfamily E member 30)	2	102	35.4	inactive
24	Or1e30 (olfactory receptor family 1 subfamily E member 30)	3	56.5	115	inactive
25	Or5b12 (olfactory receptor family 5 subfamily B member 12)	1	95.6	70.4	inactive
26	Or5b12 (olfactory receptor family 5 subfamily B member 12)	2	74.8	87.6	inactive
27	Or5b12 (olfactory receptor family 5 subfamily B member 12)	3	87.9	78.4	inactive
28	Rtp2 (receptor transporter protein 2)	1	77.4	87.7	inactive
29	Rtp2 (receptor transporter protein 2)	2	75.1	76.9	inactive
30	Rtp2 (receptor transporter protein 2)	3	71	71.3	inactive
31	Sec24c (SEC24 homolog C, COPII coat complex component)	1	76.5	97.3	inactive
32	Sec24c (SEC24 homolog C, COPII coat complex component)	2	121	89.4	active
33	Catsper3 (cation channel, sperm associated 3)	1	56.6	70.8	inactive
34	Catsper3 (cation channel, sperm associated 3)	2	69.1	75.7	inactive
35	Catsper3 (cation channel, sperm associated 3)	3	44.7	63.2	inactive
36	Ift46 (intraflagellar transport 46)	1	62.9	47.1	inactive
37	Ift46 (intraflagellar transport 46)	2	72.9	88.1	inactive
38	Ift46 (intraflagellar transport 46)	3	24	40.2	inactive
39	Maea (macrophage erythroblast attacher)	1	65.3	59.1	inactive
40	Maea (macrophage erythroblast attacher)	2	65.2	64.5	inactive
41	Maea (macrophage erythroblast attacher)	3	34.9	68.6	inactive
42	Mrgpre (MAS-related GPR, member E)	1	11.3	11	inactive
43	Mrgpre (MAS-related GPR, member E)	2	79	83.8	inactive
44	Mrgpre (MAS-related GPR, member E)	3	77	91.1	inactive
45	Gtf2h5 (general transcription factor IIH, polypeptide 5)	1	78	97.2	inactive
46	Gtf2h5 (general transcription factor IIH, polypeptide 5)	2	43.9	35.3	inactive
47	Gtf2h5 (general transcription factor IIH, polypeptide 5)	3	31.9	26.4	inactive
48	Msn (moesin)	1	67.4	65.3	inactive
49	Msn (moesin)	2	99.3	75.4	inactive
50	Msn (moesin)	3	96	77.2	inactive
51	Gpsm2 (G-protein signalling modulator 2 (AGS3-like, C. elegans))	1	109	93.6	inactive
52	Gpsm2 (G-protein signalling modulator 2 (AGS3-like, C. elegans))	2	52.5	53.7	inactive
53	Gpsm2 (G-protein signalling modulator 2 (AGS3-like, C. elegans))	3	64.1	32.7	inactive
54	Nkx2-5 (NK2 homeobox 5)	1	71.1	53.5	inactive
55	Nkx2-5 (NK2 homeobox 5)	2	89.3	90.9	inactive
56	Otog (otogelin)	1	121	66.3	active
57	Otog (otogelin)	2	65.9	63.8	inactive
58	Glmn (glomulin, FKBP associated protein)	1	64.6	77.4	inactive
59	Glmn (glomulin, FKBP associated protein)	2	66.3	82	inactive
60	Glmn (glomulin, FKBP associated protein)	3	67.7	90	inactive
61	Galr2 (galanin receptor 2)	1	110	100	inactive
62	Galr2 (galanin receptor 2)	2	50.7	83.6	inactive
63	Galr2 (galanin receptor 2)	3	84.2	76.7	inactive
64	Apc2 (APC regulator of WNT signaling pathway 2)	1	75.7	74.6	inactive
65	Apc2 (APC regulator of WNT signaling pathway 2)	2	85.3	85.9	inactive
66	Rbp7 (retinol binding protein 7, cellular)	1	79.1	61.8	inactive
67	Rbp7 (retinol binding protein 7, cellular)	2	74.5	84.3	inactive
68	Rbp7 (retinol binding protein 7, cellular)	3	78.1	81.7	inactive
69	Usp54 (ubiquitin specific peptidase 54)	1	61.7	60.9	inactive
70	Usp54 (ubiquitin specific peptidase 54)	2	62.9	61.9	inactive
71	Usp54 (ubiquitin specific peptidase 54)	3	87.6	74.6	inactive
72	Usp54 (ubiquitin specific peptidase 54)	4	89.9	80.8	inactive
73	Usp54 (ubiquitin specific peptidase 54)	5	77.8	62.3	inactive
74	Usp54 (ubiquitin specific peptidase 54)	6	104	98.1	inactive
75	Or51k2 (olfactory receptor family 51 subfamily K member 2)	1	48.8	38.6	inactive
76	Or51k2 (olfactory receptor family 51 subfamily K member 2)	2	87.5	78.1	inactive
77	Or51k2 (olfactory receptor family 51 subfamily K member 2)	3	41	47.9	inactive
78	Usp19 (ubiquitin specific peptidase 19)	1	81.3	71.3	inactive
79	Usp19 (ubiquitin specific peptidase 19)	2	63.2	69.4	inactive
80	Usp19 (ubiquitin specific peptidase 19)	3	98.9	85.5	inactive
81	Nlrp10 (NLR family, pyrin domain containing 10)	1	59.6	66.5	inactive
82	Nlrp10 (NLR family, pyrin domain containing 10)	2	70.9	73	inactive
83	Nlrp10 (NLR family, pyrin domain containing 10)	3	60.1	47.6	inactive
84	Fbxl21 (F-box and leucine-rich repeat protein 21)	1	64.4	65.2	inactive
85	Fbxl21 (F-box and leucine-rich repeat protein 21)	2	98	82.3	inactive
86	Fbxl21 (F-box and leucine-rich repeat protein 21)	3	106	75.2	inactive
87	Zfp410 (zinc finger protein 410)	1	66.4	66.6	inactive
88	Zfp410 (zinc finger protein 410)	2	90.5	71.5	inactive
89	Zfp410 (zinc finger protein 410)	3	70.2	23.1	inactive
90	Supt7l (SPT7-like, STAGA complex gamma subunit)	1	101	80	inactive
91	Supt7l (SPT7-like, STAGA complex gamma subunit)	2	60.5	72.4	inactive
92	Supt7l (SPT7-like, STAGA complex gamma subunit)	3	84.4	78.3	inactive
93	Hmcn2 (hemicentin 2)	1	46.6	27.9	inactive
94	Hmcn2 (hemicentin 2)	2	74.3	77.1	inactive
95	Hmcn2 (hemicentin 2)	3	86.3	87.6	inactive
96	Rtkn (rhotekin)	1	173	119	active
97	Rtkn (rhotekin)	2	115	83.4	inactive
98	Rtkn (rhotekin)	3	95.2	67	inactive
99	Tbrg1 (transforming growth factor beta regulated gene 1)	1	35.4	38.5	inactive
100	Tbrg1 (transforming growth factor beta regulated gene 1)	2	57.9	75	inactive
101	Tbrg1 (transforming growth factor beta regulated gene 1)	3	98.8	90.7	inactive
102	Crebzf (CREB/ATF bZIP transcription factor)	1	68.9	97.8	inactive
103	Crebzf (CREB/ATF bZIP transcription factor)	2	119	136	inactive
104	Crebzf (CREB/ATF bZIP transcription factor)	3	55.4	89.1	inactive
105	Or51i2 (olfactory receptor family 51 subfamily I member 2)	1	86.1	85.8	inactive
106	Or51i2 (olfactory receptor family 51 subfamily I member 2)	2	23.3	30.2	inactive
107	Or51i2 (olfactory receptor family 51 subfamily I member 2)	3	70.2	94.7	inactive
